PubChem BioAssay AID652259, Drosophila RNAi Screening Center, 2013
The screen tested about 22,000 reagents; this is a random part of those with a known target gene and a result. In the full data, 233 (1.1%) got an active call. 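Light values are raw, unnormalised plate reads; the ratio scores behind the reporter calls were not deposited.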 Entries without a mark were called inactive. A plus sign joins genes that one reagent is predicted to hit. Not given: the amount of reagent, the time to read-out, the dose of the treatment.

Test: 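Genome-wide hunt for genes that control Wingless pathway activity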 (primary screen)
Cells: Drosophila clone 8 imaginal disc epithelial cells
Reagents: long dsRNA against Drosophila genes
Conditions: pathway stimulated by co-transfected Wingless expression plasmid
Detection: 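Firefly luciferase from a tcf-site Wingless reporter, measured alongside co-transfected Renilla luciferase that tracks transfection; pathway stimulated by a Wingless plasmid; the firefly-to-Renilla ratio is not deposited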
Reading the numbers: firefly reporter light: higher = more Wg reporter light, before normalisation; Renilla control light: higher = more transfected or surviving cells
Rule for the call: 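a knock-down is a candidate when at least two out of four statistical tests show it departing from its plate mean; one test alone signals a weak candidate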
Meaning of the calls: active = candidate regulator (raises or lowers reporter); inactive = not a candidate

gene knocked down | dsRNA | reporter change call, replicate 1 | firefly reporter light, replicate 1 | firefly reporter light, replicate 2 | Renilla control light, replicate 1 | Renilla control light, replicate 2
Hydr2 (alpha/beta hydrolase2) | DRSC00607 | – | 10373 | – | 4576 | –
CG31473 | DRSC15443 | – | 20325 | – | 5707 | –
CG34187 (retired record) + Trpm | DRSC05543 | – | 23836 | – | 18040 | –
S-Lap1 (Sperm-Leucylaminopeptidase 1) | DRSC10627 | – | 7872 | – | 4656 | –
CG34007 | DRSC01790 | – | 21917 | – | 10192 | –
Faa (Fumarylacetoacetase) | DRSC08451 | – | 5453 | – | 2338 | –
nac (neuronally altered carbohydrate) | DRSC16520 | – | 18711 | – | 4619 | –
Prosalpha3 (Proteasome alpha3 subunit) | DRSC04644 | – | 1056 | 4231 | 268 | 1353
CG12011 | DRSC08219 | – | 6835 | – | 5366 | –
IntS12 (Integrator 12) | DRSC15818 | – | 6544 | – | 3153 | –
GstD1 (Glutathione S transferase D1) | DRSC16683 | – | 23620 | – | 5640 | –
eIF2Bbeta (eukaryotic translation initiation factor 2B subunit beta) | DRSC18465 | – | 16731 | – | 12693 | –
Syt1 (Synaptotagmin 1) | DRSC00156 | – | 21530 | – | 9664 | –
Syt1 (Synaptotagmin 1) | DRSC00157 | – | 20266 | 6.00e5 | 10949 | 2.22e5
Syt1 (Synaptotagmin 1) | DRSC00158 | – | 14125 | – | 6791 | –
Syt1 (Synaptotagmin 1) | DRSC00840 | – | 14213 | – | 5576 | –
Syt1 (Synaptotagmin 1) | DRSC22077 | – | 8.28e5 | 8.34e5 | 4.07e5 | 4.37e5
TfIIA-S (Transcription-factor-IIA-S) | DRSC16883 | Wg reporter activity lowered (active) | 6252 | – | 10041 | –
Adsl (Adenylosuccinate lyase) | DRSC15500 | – | 2721 | 8439 | 1197 | 2144
mask (multiple ankyrin repeats single KH domain) | DRSC15370 | Wg reporter activity lowered | 7716 | – | 13427 | –
mask (multiple ankyrin repeats single KH domain) | DRSC16005 | Wg reporter activity lowered | 1012 | 3321 | 949 | 1632
mask (multiple ankyrin repeats single KH domain) | DRSC16018 | Wg reporter activity lowered | 777 | 3673 | 876 | 1767
UQCR-14L (Ubiquinol-cytochrome c reductase 14 kDa subunit-like) | DRSC15288 | – | 10940 | – | 4933 | –
UQCR-14L (Ubiquinol-cytochrome c reductase 14 kDa subunit-like) | DRSC22425 | – | 7.67e5 | 7.36e5 | 2.91e5 | 2.92e5
Rfk (Riboflavin kinase) | DRSC15454 | – | 4370 | – | 800 | –
Alp9 (Alkaline phosphatase 9) | DRSC10486 | – | 3668 | – | 985 | –
wkd (whacked) | DRSC15777 | – | 12361 | – | 2475 | –
vanin-like | DRSC17440 | – | 2612 | – | 1010 | –
CG3301 | DRSC15471 | – | 2323 | 7184 | 979 | 2120
CG34417 | DRSC17467 | – | 3373 | – | 849 | –
CG34417 | DRSC18332 | – | 23936 | – | 11520 | –
CG34417 | DRSC18333 | – | 2343 | 7104 | 609 | 2169
svp (seven up) | DRSC12899 | – | 3584 | – | 1251 | –
svp (seven up) | DRSC15311 | Wg reporter activity raised (active) | 14823 | – | 1696 | –
svp (seven up) | DRSC17075 | – | 24624 | – | 6299 | –
CG3955 | DRSC06859 | – | 13099 | – | 3783 | –
CG16799 | DRSC06626 | – | 9604 | – | 4458 | –
CG16799 | DRSC21553 | – | 5.57e5 | 5.27e5 | 2.58e5 | 2.14e5
antr (antares) | DRSC22392 | – | 5.62e5 | 5.82e5 | 2.57e5 | 2.17e5
CG12061 | DRSC20715 | – | 18354 | – | 10137 | –
CG13577 | DRSC04213 | – | 1805 | 7618 | 486 | 2448
bdwf (bedwarfed) | DRSC15532 | – | 3268 | 7541 | 1195 | 2609
CG43136 | DRSC17417 | – | 4087 | – | 1612 | –
CG13428 | DRSC06390 | – | 10099 | – | 2929 | –
CG31454 | DRSC14365 | – | 15853 | – | 5703 | –
CG31454 | DRSC22801 | – | 5.22e5 | 5.66e5 | 2.40e5 | 3.12e5
CG13850 | DRSC14700 | – | 2194 | 4797 | 1123 | 1532
sgll (sugarlethal) | DRSC15442 | – | 13767 | – | 4020 | –
mTor (mechanistic Target of rapamycin) | DRSC02811 | – | 6928 | – | 2032 | –
Cad88C (Cadherin 88C) | DRSC15486 | – | 8032 | – | 1760 | –
CG8323 | DRSC07149 | – | 5447 | – | 2868 | –
Vha16-4 (Vacuolar H[+] ATPase 16kD subunit 4) | DRSC07321 | – | 5400 | – | 1591 | –
Spn (Spinophilin) | DRSC07986 | – | 2140 | – | 1125 | –
Spn (Spinophilin) | DRSC08490 | – | 13408 | – | 3334 | –
Spn (Spinophilin) | DRSC08491 | – | 5052 | – | 1981 | –
beat-Ic (beaten path Ic) | DRSC01524 | – | 23251 | – | 7825 | –
beat-Ic (beaten path Ic) | DRSC03491 | – | 3401 | 2194 | 731 | 1481
RpL23A (Ribosomal protein L23A) | DRSC08694 | – | 17962 | – | 3750 | –
RpL23A (Ribosomal protein L23A) | DRSC22035 | – | 7.80e5 | 8.16e5 | 3.02e5 | 2.99e5
Sgf29 (SAGA-associated factor 29kDa) | DRSC04076 | – | 8050 | – | 2343 | –
L (retired record) | DRSC05966 | – | 12905 | – | 2048 | –
L (retired record) | DRSC05967 | – | 10746 | – | 1642 | –
CG8004 | DRSC10947 | – | 5372 | – | 2384 | –
CG42748 | DRSC03712 | – | 1706 | 7149 | 784 | 2098
CG42748 | DRSC03713 | – | 12088 | – | 4029 | –
CG42748 | DRSC03734 | – | 2160 | 6091 | 886 | 1957
Gr93d (Gustatory receptor 93d) | DRSC21941 | – | 3.54e5 | 3.64e5 | 1.42e5 | 1.83e5
cyst (cysts) | DRSC02023 | – | 8181 | – | 3165 | –
CG12608 | DRSC19472 | – | 2247 | 8072 | 1328 | 2673
Men (Malic enzyme) | DRSC12924 | – | 4018 | – | 1149 | –
Men (Malic enzyme) | DRSC16738 | – | 20208 | – | 7514 | –
Men (Malic enzyme) | DRSC22694 | – | 1.14e6 | 7.26e5 | 4.33e5 | 3.42e5
Pcyt2 (Phosphocholine cytidylyltransferase 2) | DRSC08531 | – | 19832 | – | 6784 | –
